Measurements published in doi:10.1101/2022.03.23.485409.
These are yes or no findings as the source states them, for the method shown. Binding seen in cells or lysates may run through a third protein. Some binding calls cover weakened binding; strength is not graded here. Where a sequence is shown, tags or fusion partners need not be part of it.

Amino acid sequences for entries named in this document (tags omitted).
UniProt P16220: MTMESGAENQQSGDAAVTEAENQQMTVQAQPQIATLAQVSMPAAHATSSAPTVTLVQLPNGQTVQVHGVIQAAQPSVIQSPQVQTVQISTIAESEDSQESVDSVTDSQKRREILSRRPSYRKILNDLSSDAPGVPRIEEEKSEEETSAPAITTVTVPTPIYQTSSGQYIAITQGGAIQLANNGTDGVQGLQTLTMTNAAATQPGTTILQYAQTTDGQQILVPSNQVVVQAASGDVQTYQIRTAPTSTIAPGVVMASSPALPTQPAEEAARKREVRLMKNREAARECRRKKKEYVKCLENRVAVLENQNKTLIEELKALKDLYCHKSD
UniProt Q92793: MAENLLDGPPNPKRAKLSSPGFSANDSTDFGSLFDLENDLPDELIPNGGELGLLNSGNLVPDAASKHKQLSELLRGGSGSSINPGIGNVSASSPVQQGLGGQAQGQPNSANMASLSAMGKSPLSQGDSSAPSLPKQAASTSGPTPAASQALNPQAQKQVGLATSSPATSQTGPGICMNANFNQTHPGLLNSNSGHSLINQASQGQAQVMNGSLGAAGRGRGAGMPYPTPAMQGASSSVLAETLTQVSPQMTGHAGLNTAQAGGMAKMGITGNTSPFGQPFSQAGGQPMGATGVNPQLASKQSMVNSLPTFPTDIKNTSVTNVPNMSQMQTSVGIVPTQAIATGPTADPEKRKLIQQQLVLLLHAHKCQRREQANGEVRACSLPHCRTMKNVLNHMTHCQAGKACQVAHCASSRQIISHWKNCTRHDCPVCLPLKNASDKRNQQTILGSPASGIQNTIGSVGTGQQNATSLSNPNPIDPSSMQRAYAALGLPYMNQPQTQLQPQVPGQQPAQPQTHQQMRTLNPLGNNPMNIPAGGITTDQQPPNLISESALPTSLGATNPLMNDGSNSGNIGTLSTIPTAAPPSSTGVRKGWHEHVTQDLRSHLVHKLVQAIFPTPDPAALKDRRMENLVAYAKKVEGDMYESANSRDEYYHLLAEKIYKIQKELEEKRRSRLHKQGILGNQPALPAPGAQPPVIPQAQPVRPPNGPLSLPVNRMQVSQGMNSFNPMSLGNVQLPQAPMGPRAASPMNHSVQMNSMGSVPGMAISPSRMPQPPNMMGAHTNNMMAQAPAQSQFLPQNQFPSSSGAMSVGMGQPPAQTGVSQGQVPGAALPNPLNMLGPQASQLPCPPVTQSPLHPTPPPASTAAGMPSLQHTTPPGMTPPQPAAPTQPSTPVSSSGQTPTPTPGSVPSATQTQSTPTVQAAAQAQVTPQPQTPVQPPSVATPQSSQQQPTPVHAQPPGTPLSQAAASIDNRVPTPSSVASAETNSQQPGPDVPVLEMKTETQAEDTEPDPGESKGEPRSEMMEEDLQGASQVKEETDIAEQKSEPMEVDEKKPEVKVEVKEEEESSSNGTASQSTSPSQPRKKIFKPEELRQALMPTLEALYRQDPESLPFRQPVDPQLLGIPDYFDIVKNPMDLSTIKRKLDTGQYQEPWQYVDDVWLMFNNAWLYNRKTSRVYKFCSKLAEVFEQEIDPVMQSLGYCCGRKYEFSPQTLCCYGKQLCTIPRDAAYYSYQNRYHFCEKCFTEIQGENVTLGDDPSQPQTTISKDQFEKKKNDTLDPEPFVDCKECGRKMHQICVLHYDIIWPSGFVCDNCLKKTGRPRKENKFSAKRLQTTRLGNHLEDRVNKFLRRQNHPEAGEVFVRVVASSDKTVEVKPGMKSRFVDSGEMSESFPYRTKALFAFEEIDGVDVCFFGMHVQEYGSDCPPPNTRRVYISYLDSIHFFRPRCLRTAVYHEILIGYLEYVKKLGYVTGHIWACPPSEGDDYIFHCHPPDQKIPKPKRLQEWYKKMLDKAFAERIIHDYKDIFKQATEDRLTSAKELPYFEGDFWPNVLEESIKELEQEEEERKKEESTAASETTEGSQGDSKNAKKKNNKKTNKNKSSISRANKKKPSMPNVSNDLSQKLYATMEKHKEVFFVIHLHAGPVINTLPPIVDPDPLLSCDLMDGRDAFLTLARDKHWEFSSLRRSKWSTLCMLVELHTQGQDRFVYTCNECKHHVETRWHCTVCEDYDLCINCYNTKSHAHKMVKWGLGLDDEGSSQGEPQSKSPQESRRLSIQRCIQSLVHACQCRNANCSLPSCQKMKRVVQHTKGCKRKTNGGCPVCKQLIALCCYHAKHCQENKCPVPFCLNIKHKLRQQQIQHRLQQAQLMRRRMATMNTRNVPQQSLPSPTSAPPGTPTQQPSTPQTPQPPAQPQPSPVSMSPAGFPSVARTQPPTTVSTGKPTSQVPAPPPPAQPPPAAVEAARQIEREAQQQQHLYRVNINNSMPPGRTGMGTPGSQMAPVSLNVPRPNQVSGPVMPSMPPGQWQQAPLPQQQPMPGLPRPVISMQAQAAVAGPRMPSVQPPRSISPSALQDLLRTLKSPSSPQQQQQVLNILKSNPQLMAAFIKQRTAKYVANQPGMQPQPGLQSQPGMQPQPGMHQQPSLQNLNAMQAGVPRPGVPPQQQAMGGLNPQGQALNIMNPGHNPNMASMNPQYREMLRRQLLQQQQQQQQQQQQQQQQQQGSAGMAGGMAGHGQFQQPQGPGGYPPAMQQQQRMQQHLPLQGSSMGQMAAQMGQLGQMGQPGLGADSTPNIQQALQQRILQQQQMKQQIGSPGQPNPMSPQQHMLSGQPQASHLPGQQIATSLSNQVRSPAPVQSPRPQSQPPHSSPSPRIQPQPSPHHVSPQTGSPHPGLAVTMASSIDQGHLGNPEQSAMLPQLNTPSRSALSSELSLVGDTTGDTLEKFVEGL
UniProt P04406: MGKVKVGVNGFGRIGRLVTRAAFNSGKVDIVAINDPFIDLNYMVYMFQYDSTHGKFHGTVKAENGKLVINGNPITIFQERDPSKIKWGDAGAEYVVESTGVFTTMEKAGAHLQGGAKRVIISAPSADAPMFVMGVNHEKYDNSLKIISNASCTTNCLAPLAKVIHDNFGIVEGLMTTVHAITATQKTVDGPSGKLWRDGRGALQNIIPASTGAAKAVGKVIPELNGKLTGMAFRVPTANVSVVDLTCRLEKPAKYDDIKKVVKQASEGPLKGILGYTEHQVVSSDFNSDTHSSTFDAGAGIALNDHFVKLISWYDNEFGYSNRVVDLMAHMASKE
UniProt O14744: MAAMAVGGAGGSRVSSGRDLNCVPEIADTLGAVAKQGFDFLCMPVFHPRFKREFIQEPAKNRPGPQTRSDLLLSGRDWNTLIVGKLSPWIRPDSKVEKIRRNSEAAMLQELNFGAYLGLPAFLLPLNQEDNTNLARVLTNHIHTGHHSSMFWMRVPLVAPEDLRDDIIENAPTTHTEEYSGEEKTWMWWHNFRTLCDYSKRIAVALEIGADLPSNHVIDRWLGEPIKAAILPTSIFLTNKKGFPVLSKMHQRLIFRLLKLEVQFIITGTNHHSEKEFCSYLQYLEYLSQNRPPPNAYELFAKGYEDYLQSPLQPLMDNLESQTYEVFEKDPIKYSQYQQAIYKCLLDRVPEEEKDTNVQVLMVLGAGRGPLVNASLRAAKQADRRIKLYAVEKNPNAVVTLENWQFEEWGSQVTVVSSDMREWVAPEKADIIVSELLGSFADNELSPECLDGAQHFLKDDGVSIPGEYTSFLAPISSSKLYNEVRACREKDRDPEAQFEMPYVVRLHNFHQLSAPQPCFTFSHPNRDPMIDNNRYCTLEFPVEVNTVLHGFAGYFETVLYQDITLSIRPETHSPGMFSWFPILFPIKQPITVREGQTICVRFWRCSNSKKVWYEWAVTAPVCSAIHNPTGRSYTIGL

target: T1, Flag-tagged EWSR1(2-325)-ATF1(66-271) fusion (UniProt Q01844); assay: co-IP
T1 sequence: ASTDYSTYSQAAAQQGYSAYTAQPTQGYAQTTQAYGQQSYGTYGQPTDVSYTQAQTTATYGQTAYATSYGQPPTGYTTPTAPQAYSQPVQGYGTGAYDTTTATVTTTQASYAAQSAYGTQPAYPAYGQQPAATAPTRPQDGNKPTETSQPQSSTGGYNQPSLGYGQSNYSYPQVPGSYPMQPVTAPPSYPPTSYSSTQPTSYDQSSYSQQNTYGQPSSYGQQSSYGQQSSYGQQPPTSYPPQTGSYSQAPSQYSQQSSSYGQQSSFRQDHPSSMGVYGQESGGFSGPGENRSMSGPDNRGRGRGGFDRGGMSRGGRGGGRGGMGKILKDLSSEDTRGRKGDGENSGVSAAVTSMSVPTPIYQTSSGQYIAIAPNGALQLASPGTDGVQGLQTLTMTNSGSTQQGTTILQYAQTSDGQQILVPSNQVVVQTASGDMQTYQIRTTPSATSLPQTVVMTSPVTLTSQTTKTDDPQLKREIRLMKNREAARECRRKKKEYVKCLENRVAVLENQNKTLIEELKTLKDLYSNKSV

Substance	binding
CREB1 (from UniProt P16220 1-327)	binds
CREB-binding protein (CBP) (from UniProt Q92793 1-2442)	no binding
GAPDH (from UniProt P04406 1-335)	no binding
protein arginine methyltransferase 5 (PRMT5) (from UniProt O14744 1-637) (enzyme)	binds
